# Experimental data reported in the supplement of paper PMC10032668.
# The chains behind the UniProt entries cited, without tags or fusion partners.
# PHF3, Q92576, UniProt Q92576, whole entry: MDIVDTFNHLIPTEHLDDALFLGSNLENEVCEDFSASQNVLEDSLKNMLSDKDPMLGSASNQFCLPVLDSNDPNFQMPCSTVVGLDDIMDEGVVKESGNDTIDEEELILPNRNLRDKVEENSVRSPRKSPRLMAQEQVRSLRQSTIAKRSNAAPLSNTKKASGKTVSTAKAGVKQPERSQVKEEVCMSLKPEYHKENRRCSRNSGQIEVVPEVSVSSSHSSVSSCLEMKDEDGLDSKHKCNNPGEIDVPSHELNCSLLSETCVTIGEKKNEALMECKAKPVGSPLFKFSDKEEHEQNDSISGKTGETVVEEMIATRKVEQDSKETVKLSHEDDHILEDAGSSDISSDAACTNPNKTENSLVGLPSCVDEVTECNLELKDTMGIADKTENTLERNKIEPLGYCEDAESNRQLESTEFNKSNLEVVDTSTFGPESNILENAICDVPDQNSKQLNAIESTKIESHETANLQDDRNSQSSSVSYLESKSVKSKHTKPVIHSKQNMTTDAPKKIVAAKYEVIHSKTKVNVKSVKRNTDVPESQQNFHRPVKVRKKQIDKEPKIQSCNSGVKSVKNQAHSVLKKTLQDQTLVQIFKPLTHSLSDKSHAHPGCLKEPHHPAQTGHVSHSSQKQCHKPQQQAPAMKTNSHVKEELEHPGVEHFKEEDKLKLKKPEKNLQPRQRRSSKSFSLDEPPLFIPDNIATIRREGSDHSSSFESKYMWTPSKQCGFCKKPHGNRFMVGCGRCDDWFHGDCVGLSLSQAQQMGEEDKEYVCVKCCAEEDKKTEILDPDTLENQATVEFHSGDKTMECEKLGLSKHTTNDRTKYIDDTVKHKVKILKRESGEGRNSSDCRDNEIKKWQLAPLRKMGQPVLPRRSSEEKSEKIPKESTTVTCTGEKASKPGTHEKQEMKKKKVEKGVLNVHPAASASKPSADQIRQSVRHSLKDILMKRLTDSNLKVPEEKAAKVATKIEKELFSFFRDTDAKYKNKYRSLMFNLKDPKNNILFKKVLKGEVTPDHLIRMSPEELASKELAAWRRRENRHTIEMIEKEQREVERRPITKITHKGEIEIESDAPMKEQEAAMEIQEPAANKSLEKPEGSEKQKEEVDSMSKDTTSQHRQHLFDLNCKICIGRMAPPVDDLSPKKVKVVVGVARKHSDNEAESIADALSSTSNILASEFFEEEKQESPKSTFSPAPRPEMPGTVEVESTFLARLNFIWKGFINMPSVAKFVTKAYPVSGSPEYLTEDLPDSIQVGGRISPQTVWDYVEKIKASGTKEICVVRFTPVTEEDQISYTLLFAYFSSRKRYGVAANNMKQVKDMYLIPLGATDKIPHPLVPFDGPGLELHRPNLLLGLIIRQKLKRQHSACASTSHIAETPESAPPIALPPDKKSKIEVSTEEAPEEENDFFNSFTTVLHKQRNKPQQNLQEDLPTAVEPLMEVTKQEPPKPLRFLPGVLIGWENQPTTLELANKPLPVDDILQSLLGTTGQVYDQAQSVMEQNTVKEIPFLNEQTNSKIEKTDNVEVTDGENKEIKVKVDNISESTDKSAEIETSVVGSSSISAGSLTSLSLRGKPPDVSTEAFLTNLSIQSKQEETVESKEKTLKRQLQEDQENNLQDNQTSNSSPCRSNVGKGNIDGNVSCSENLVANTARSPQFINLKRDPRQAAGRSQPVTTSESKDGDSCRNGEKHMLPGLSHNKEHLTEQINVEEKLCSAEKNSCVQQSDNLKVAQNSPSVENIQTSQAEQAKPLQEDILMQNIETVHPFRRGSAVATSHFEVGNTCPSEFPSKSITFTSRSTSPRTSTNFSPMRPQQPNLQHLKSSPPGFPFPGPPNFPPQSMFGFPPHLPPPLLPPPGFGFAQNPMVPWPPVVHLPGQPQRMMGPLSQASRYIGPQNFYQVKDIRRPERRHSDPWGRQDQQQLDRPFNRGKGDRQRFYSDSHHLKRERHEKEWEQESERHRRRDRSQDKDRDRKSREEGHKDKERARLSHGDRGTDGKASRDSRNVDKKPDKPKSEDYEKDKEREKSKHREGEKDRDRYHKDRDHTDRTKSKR
# RBM25, P49756, UniProt P49756, whole entry: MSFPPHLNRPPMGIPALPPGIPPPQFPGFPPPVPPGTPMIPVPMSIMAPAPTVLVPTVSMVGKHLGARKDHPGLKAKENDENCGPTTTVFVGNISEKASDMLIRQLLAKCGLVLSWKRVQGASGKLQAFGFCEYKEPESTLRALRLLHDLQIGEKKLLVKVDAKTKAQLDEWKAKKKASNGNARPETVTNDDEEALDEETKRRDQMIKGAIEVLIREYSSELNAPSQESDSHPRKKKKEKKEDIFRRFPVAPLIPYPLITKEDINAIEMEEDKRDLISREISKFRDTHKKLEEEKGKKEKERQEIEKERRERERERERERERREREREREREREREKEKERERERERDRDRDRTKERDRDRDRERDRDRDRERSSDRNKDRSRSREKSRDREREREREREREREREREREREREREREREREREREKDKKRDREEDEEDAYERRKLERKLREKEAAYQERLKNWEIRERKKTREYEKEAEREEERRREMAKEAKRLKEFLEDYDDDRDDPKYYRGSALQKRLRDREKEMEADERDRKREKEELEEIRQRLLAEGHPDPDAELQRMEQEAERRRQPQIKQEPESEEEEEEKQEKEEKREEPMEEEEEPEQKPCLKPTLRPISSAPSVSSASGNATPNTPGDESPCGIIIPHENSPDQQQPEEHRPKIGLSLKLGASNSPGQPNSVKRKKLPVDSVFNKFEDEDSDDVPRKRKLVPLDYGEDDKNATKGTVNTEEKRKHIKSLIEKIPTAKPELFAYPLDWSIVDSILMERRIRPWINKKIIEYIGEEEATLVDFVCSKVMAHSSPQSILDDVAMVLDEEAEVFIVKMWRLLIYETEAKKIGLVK
# TUBG1, P23258, UniProt P23258, whole entry: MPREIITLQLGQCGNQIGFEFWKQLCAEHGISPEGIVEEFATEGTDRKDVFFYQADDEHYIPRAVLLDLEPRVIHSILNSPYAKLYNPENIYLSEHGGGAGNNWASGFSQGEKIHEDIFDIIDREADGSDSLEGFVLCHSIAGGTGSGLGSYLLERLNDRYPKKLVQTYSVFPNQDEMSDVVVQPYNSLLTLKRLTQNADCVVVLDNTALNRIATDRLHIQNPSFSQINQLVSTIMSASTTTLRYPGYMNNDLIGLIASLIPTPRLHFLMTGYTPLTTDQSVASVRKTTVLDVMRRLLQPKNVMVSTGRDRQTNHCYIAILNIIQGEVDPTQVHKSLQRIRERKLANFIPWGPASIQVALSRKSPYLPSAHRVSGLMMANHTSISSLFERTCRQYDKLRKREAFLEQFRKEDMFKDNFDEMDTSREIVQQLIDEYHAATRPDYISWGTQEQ
# UBE2I, P63279, UniProt P63279, whole entry: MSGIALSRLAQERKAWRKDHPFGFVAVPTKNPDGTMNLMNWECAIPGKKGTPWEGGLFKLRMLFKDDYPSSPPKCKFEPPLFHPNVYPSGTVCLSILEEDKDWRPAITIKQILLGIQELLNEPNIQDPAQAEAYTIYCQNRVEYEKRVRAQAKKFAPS
# Some of the results follow. Only hits are listed; about a third recur on repeated control peptides.
# Key:
# Assay in all cases: PRISMA enrichment of interactor (LFQ) in peptide spot vs all other peptide spots (log2 fold change); higher = stronger / more specific binding of the interactor to the peptide
# PHF3, Q92576 = biological target: PHF3, Q92576
# Protocol: (§1)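 PRISMA: 15-aa overlapping tiles (offset 8 aa) of 60 microproteins, plus SOS1/GLUT1 control peptides, were spot-synthesized on cellulose membranes in triplicate. Membranes were incubated with benzonase-treated HEK293T lysate, and bound proteins were identified by LC-MS/MS with LFQ. Enrichment is the log2 fold change of each protein in one spot versus all other spots. Only interactors passing the significance cutoff are listed.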
# RBMS1, P29558 = biological target: RBMS1, P29558
# Protocol: as §1
# SOAT1, P35610 = biological target: SOAT1, P35610
# Protocol: as §1
# SRI, P30626 = biological target: SRI, P30626
# Protocol: as §1
# RAB21, Q9UL25 = biological target: RAB21, Q9UL25
# Protocol: as §1
# RBIS, Q8N0T1 = biological target: RBIS, Q8N0T1
# Protocol: as §1
# RBM25, P49756 = biological target: RBM25, P49756
# Protocol: as §1
# TUBG1, P23258 = biological target: TUBG1, P23258
# Protocol: as §1
# STAT1, P42224 = biological target: STAT1, P42224
# Protocol: as §1
# UBE2I, P63279 = biological target: UBE2I, P63279
# Protocol: as §1
# UQCRQ, O14949 = biological target: UQCRQ, O14949
# Protocol: as §1
binder,measurement,setting,value
LNAMSLGPRRARSAP [RNF10],PRISMA enrichment of interactor (log2),"PHF3, Q92576",4.49
same,PRISMA enrichment of interactor (log2),"RBMS1, P29558",6.1
same,PRISMA enrichment of interactor (log2),"SOAT1, P35610",4.31
same,PRISMA enrichment of interactor (log2),"SRI, P30626",4.68
MRVWIRAPRCRGGPG [RAB12],PRISMA enrichment of interactor (log2),"RAB21, Q9UL25",4.36
KAGLQSLQFIMELLY,PRISMA enrichment of interactor (log2),"RBIS, Q8N0T1",4.38
MERKVRKLKSRERQW [RP11-140K17.3],PRISMA enrichment of interactor (log2),"RBM25, P49756",5.77
same,PRISMA enrichment of interactor (log2),"TUBG1, P23258",6.94
HGKIKVLEWFKYVLG,PRISMA enrichment of interactor (log2),"STAT1, P42224",5.3
SRWLCLSAAWSFVQV [PVT1],PRISMA enrichment of interactor (log2),"UBE2I, P63279",5.81
same,PRISMA enrichment of interactor (log2),"UQCRQ, O14949",5.4

# 2 records picked at random from those above, as already listed:
binder,measurement,setting,value
MERKVRKLKSRERQW [RP11-140K17.3],PRISMA enrichment of interactor (log2),"TUBG1, P23258",6.94
HGKIKVLEWFKYVLG,PRISMA enrichment of interactor (log2),"STAT1, P42224",5.3
